The other results are listed elsewhere or left out.
Experiments:
Experiment in all cases: log2 fold change, soluble protein after heating vs DMSO (PISA); higher = thermal stabilisation; K562 lysate, 10 uM; active = over 0.2 and 3.5 SD of the protein, either way, in both replicates (recomputed)
lapatinib = compound: CS(=O)(=O)CCNCc1ccc(-c2ccc3ncnc(Nc4ccc(OCc5cccc(F)c5)c(Cl)c4)c3c2)o1 [lapatinib]
Method in brief: (§1)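 Values give the log-two fold change in thermal stability against solvent controls, from duplicates. Crude K562 extract at 1 mg/mL protein, made by dounce homogenisation in PBS pH 7.4 with 1 mM MgCl2, was treated with 10 μM compound for 30 min. After 3 min heating across 48°C-58°C, aliquots were pooled, adjusted to 0.5% NP-40 at 4°C and centrifuged at 21,000xg for 90 min. The supernatant was measured by TMTpro 16plex LC-MS/MS with channel sums equalised.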

Sequences of proteins named here, by UniProt entry; tags and fusion partners are left off. A change or cut given only in a name is not applied to a line headed by its entry.
UniProt P10644, whole entry, looked up: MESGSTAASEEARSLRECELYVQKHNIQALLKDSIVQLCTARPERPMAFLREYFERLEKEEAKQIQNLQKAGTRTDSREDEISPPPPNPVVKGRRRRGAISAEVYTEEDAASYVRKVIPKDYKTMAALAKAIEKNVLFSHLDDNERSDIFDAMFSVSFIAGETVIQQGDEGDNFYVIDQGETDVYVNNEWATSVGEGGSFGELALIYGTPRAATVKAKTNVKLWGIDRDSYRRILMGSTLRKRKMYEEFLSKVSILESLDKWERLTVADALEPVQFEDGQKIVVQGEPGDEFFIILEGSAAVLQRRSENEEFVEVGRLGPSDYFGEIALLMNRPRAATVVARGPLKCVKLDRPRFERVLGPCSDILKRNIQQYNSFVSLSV
UniProt Q13523: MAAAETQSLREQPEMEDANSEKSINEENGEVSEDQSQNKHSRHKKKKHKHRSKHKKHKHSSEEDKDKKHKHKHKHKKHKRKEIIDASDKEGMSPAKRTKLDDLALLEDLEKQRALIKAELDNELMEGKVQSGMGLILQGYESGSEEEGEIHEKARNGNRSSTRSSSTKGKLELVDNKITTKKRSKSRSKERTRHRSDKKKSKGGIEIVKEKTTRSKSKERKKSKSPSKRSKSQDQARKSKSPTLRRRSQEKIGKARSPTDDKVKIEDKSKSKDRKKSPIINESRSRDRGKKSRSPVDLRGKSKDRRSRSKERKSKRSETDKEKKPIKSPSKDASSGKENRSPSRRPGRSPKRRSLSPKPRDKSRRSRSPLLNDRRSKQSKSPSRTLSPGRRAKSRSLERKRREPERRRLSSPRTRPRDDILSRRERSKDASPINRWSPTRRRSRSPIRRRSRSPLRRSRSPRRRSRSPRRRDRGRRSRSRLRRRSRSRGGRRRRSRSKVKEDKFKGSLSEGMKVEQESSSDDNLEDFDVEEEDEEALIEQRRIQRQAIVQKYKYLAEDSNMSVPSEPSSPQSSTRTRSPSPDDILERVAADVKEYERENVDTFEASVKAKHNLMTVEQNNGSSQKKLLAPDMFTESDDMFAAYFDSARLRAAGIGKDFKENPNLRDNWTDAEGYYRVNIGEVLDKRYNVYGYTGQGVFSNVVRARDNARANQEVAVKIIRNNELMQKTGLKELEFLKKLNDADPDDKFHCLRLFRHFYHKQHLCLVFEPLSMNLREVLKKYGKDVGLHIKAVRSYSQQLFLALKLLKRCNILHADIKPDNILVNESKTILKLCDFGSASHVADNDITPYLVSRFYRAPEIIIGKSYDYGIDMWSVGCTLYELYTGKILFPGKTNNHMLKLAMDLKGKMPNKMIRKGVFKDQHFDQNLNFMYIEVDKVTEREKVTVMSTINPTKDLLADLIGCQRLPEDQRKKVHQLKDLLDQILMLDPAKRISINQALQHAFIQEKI
UniProt P30048: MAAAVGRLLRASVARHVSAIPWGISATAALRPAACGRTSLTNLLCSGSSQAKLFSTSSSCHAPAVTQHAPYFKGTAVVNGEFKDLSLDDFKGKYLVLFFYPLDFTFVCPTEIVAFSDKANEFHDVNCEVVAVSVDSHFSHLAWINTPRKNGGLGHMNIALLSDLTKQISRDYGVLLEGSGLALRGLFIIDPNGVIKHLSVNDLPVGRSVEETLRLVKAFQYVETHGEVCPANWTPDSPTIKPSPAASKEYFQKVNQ
UniProt Q9Y478: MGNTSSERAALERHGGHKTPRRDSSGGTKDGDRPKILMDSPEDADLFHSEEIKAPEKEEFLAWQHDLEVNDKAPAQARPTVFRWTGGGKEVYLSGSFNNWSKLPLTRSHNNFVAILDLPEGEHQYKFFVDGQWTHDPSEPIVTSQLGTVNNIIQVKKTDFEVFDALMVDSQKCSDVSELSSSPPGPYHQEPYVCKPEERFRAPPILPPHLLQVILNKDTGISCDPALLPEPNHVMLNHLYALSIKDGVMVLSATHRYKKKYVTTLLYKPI
UniProt P50336: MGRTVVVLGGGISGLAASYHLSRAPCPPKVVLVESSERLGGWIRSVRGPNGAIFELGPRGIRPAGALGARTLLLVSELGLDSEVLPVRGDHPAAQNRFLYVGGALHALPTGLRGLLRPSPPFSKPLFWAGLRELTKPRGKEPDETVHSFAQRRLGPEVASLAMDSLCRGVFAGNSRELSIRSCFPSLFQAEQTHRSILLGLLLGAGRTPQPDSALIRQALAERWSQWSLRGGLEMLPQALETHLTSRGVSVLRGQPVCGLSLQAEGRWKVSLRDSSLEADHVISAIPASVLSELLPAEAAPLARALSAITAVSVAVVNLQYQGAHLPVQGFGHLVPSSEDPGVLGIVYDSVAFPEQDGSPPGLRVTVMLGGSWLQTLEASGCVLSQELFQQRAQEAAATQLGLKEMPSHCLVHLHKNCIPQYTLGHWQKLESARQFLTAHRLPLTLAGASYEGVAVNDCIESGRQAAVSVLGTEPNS
UniProt Q14738, whole entry, looked up: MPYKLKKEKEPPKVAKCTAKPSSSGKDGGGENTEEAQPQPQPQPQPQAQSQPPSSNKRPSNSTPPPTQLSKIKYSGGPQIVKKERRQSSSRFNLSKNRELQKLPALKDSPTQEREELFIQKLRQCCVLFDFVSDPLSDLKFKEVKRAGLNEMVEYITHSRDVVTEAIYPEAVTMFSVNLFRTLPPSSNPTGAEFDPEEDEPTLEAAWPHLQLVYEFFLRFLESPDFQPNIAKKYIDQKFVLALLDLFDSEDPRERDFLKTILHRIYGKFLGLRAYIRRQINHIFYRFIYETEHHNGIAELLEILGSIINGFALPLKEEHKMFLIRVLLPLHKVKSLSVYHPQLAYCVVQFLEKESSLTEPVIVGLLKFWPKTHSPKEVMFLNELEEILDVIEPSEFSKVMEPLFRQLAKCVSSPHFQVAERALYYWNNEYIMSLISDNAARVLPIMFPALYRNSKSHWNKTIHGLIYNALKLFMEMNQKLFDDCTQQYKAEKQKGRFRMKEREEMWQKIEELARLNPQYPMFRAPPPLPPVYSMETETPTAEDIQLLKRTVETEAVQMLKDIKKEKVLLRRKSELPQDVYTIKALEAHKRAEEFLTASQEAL

pictilisib = compound: CS(=O)(=O)N1CCN(Cc2cc3nc(-c4cccc5[nH]ncc45)nc(N4CCOCC4)c3s2)CC1 [pictilisib]
Method in brief: as §1

crizotinib = compound: C[C@@H](Oc1cc(-c2cnn(C3CCNCC3)c2)cnc1N)c1c(Cl)ccc(F)c1Cl [crizotinib]
Method in brief: as §1

[1] = compound: C[C@H](C1=CC=C(C=C1)C(=O)NC2=C3C=CNC3=NC=C2)N
Method in brief: as §1

duvelisib = compound: C[C@H](Nc1ncnc2nc[nH]c12)c1cc2cccc(Cl)c2c(=O)n1-c1ccccc1 [duvelisib]
Method in brief: as §1

gandotinib = compound: Cc1cc(Nc2cc(CN3CCOCC3)c3nc(C)c(Cc4ccc(Cl)cc4F)n3n2)n[nH]1 [gandotinib]
Method in brief: as §1

tozasertib = compound: Cc1cc(Nc2cc(N3CCN(C)CC3)nc(Sc3ccc(NC(=O)C4CC4)cc3)n2)n[nH]1 [tozasertib]
Method in brief: as §1

doramapimod = compound: Cc1ccc(-n2nc(C(C)(C)C)cc2NC(=O)Nc2ccc(OCCN3CCOCC3)c3ccccc23)cc1 [doramapimod]
Method in brief: as §1

bafetinib = compound: Cc1ccc(NC(=O)c2ccc(CN3CC[C@H](N(C)C)C3)c(C(F)(F)F)c2)cc1Nc1nccc(-c2cncnc2)n1 [bafetinib]
Method in brief: as §1

[2] = compound: Cc1cccc(CC(=O)N2CCc3c2ccc(-c2cn(C)c4ncnc(N)c24)c3F)n1
Method in brief: as §1

nilotinib = compound: Cc1cn(-c2cc(NC(=O)c3ccc(C)c(Nc4nccc(-c5cccnc5)n4)c3)cc(C(F)(F)F)c2)cn1 [nilotinib]
Method in brief: as §1

[3] = compound: Cc1nc(Nc2n[nH]c3c2CN(C(=O)N[C@H](CN(C)C)c2ccccc2)C3(C)C)c2sccc2n1
Method in brief: as §1

dasatinib = compound: Cc1nc(Nc2ncc(C(=O)Nc3c(C)cccc3Cl)s2)cc(N2CCN(CCO)CC2)n1 [dasatinib]
Method in brief: as §1

[4] = compound: Cc1ncc(-c2ccnc(Nc3ccc(S(C)(=O)=O)cc3)n2)n1C(C)C
Method in brief: as §1

[5] = compound: Cn1cc(-c2ccc3c(c2)CCN3C(=O)Cc2cccc(C(F)(F)F)c2)c2c(N)ncnc21
Method in brief: as §1

quisinostat = compound: Cn1cc(CNCC2CCN(c3ncc(C(=O)NO)cn3)CC2)c2ccccc21 [quisinostat]
Method in brief: as §1

tipifarnib = compound: Cn1cncc1[C@@](N)(c1ccc(Cl)cc1)c1ccc2c(c1)c(-c1cccc(Cl)c1)cc(=O)n2C [tipifarnib]
Method in brief: as §1

[6] = compound: NC(=O)Nc1cc(-c2cccc(F)c2)sc1C(=O)N[C@H]1CCCNC1
Method in brief: as §1

[7] = compound: NC(=O)c1cnc(N[C@@H]2CCCC[C@@H]2N)nc1Nc1cccc(-n2nccn2)c1
Method in brief: as §1

[8] = compound: NC1(c2ccc(-c3nc4ccn5c(=O)[nH]nc5c4cc3-c3ccccc3)cc2)CCC1
Method in brief: as §1

Target | log2 fold change (lapatinib) | log2 fold change (pictilisib) | log2 fold change (crizotinib) | log2 fold change [1] | log2 fold change (duvelisib) | log2 fold change (gandotinib) | log2 fold change (tozasertib) | log2 fold change (doramapimod) | log2 fold change (bafetinib) | log2 fold change [2] | log2 fold change (nilotinib) | log2 fold change [3] | log2 fold change (dasatinib) | log2 fold change [4] | log2 fold change [5] | log2 fold change (quisinostat) | log2 fold change (tipifarnib) | log2 fold change [6] | log2 fold change [7] | log2 fold change [8]
PRKAR1A (UniProt P10644) | inactive: -0.038 | inactive: 0.036 | inactive: -0.008 | inactive: 0.011 | inactive: 0.004 | inactive: -0.104 | inactive: 0.01 | inactive: 0.035 | inactive: 0.03 | inactive: -0.022 | inactive: 0.017 | inactive: -0.1 | inactive: -0.023 | inactive: 0.027 | inactive: 0.086 | inactive: -0.001 | inactive: 0.033 | inactive: -0.025 | inactive: 0.111 | inactive: 0.011
PRPF4B (UniProt Q13523) | inactive: -0.029 | inactive: 0.011 | inactive: 0.002 | inactive: -0.034 | inactive: -0.024 | inactive: -0.029 | inactive: 0.065 | inactive: 0.003 | inactive: -0.094 | inactive: 0.033 | inactive: 0.004 | inactive: -0.042 | inactive: 0.007 | inactive: 0.073 | inactive: -0.002 | inactive: -0.015 | inactive: -0.009 | inactive: -0.021 | inactive: 0.045 | inactive: -0.028
PRDX3 (UniProt P30048) | inactive: 0.041 | inactive: 0.026 | inactive: 0.027 | inactive: 0.055 | inactive: 0.009 | inactive: -0.03 | inactive: -0.015 | inactive: -0.032 | inactive: 0.014 | inactive: -0.006 | inactive: 0.002 | inactive: 0.013 | inactive: 0.039 | inactive: 0.024 | inactive: -0.065 | inactive: -0.05 | inactive: -0.002 | inactive: -0.012 | inactive: -0.046 | inactive: 0.038
PRKAB1 (UniProt Q9Y478) | inactive: -0.024 | inactive: 0.051 | inactive: -0.051 | inactive: -0.016 | inactive: 0.045 | inactive: 0.08 | inactive: 0.113 | inactive: -0.022 | inactive: -0.036 | inactive: -0.182 | inactive: -0.018 | inactive: 0.109 | inactive: 0.038 | inactive: 0.102 | inactive: 0.012 | inactive: -0.072 | inactive: -0.037 | inactive: 0.092 | inactive: 0.024 | inactive: 0.023
PPOX (UniProt P50336) | active: 0.379 | inactive: 0.111 | inactive: -0.068 | inactive: -0.075 | inactive: 0.04 | active: 0.581 | inactive: 0.003 | inactive: 0.206 | inactive: -0.028 | inactive: 0.11 | inactive: 0.227 | inactive: -0.001 | inactive: 0.086 | inactive: 0.054 | inactive: -0.004 | inactive: 0.129 | inactive: -0.012 | inactive: -0.019 | inactive: -0.008 | inactive: -0.036
PPP2R5D (UniProt Q14738) | inactive: -0.018 | inactive: -0.055 | inactive: -0.024 | inactive: 0.015 | inactive: 0.059 | inactive: -0.071 | inactive: -0.01 | inactive: -0.02 | inactive: -0.024 | inactive: -0.017 | inactive: 0.004 | inactive: 0.014 | inactive: -0.016 | inactive: -0.011 | inactive: 0.042 | inactive: 0.028 | inactive: 0.013 | inactive: 0.027 | inactive: -0.021 | inactive: 0.012

— the supplement of paper PMC10849652
